In all, about 340,000 compounds went through this assay and about 12,000 (3.5%) were called active. These results got no clear call from the source, so the numbers are uncertain. The call rests on the fitted dose curve; in most records, active means well fitted inhibition curve with a large enough effect; inconclusive means small, poorly fitted or top-dose-only effect, or another doubt; inactive means no such curve, though single readings can be large or run the other way.
assay: qHTS Assay for Inhibitors of Hepatitis C Virus (HCV); settings: Huh7.5.1 HCVcc-Cre (HCVcc is cell-culture hepatitis C virus) infection, luciferase reporter, 44 h; activity change, negative = inhibition: at 41.8 µM (top of the series)
Text: Hepatitis C virus (HCV) infects about 200 million people in the world. Many infected people progress to chronic liver disease including cirrhosis with a risk of developing liver cancer. To date, there is no effective vaccine for hepatitis C. Current therapy based on interferon is only effective in about half of the patients and is associated with significant adverse effects. The fraction of people with HCV who can complete a successful treatment is estimated to be no more than 10 percent. Recent development of direct-acting antivirals against HCV, such as protease and polymerase inhibitors, is promising but still requires combination with peginterferon and ribavirin for maximal efficacy. In addition, these agents are associated with high rate of resistance and many have significant side effects. Due to the lack of a culture system for infectious HCV, the search for new HCV drugs has been greatly hampered. […] High-throughput screening (HTS) with an infectious HCV system would cover the complete spectrum of potentially druggable targets in all stages of HCV lifecycle, and would have more biological relevance than other cell-based assays. Moreover, targeting several key processes in the viral life cycle may not only increase antiviral efficacy; more importantly, it may also reduce the capacity of the virus to develop resistance to the compound. The goal of this project is to identify novel HCV inhibitors as new therapies for hepatitis C, using a highly sensitive and specific assay platform which is based on a HCV infectious cell culture system established in the laboratory and adapted for high-throughput HCV drug screen. NIH Chemical Genomics Center [NCGC] NIH Molecular Libraries Probe Centers Network [MLPCN] MLPCN Grant: MH095511 Assay Submitter (PI): Jake Liang, NIDDK
The assay will start with plating 1,000 cells/well in 3 µL volume and culture for 4 h. Then 23 nL of compounds from the library collection will be added to each well, followed by adding 2.5 µL of HCVcc-Cre virus (~ 0.5 moi) and further cultured for 44 h before the luciferase assay. A volume of 4.5 µL luciferase substrates will be added to each well and the plates will be incubated at room temperature for 15 min. and then read for 15 sec. for the luciferase activity
On the % scale 0 is the no-effect control and ±100 the full control effect.

Q: Which Potency does the source give for `COc1ccc(CN(CCCl)CCCl)cc1Cl` here?
A: Its Potency is inconclusive: 31.6 µM.

Q: Which Potency does the source give for `CCOc1ccc(C)cc1CN(CCCl)CCCl` here?
A: The Potency was inconclusive: 31.6 µM.

Q: For `O=C(OC1CN2CCC1CC2)C1c2ccccc2C=Cc2ccccc21` (centres undefined), which activity change, negative = inhibition is on record?
A: The activity change, negative = inhibition was inconclusive: -32.3%.

Q: For `CCc1cc(C(=O)NCC2(N3CCCCC3)CCCCC2)sc1C`, which activity change, negative = inhibition is on record?
A: Its activity change, negative = inhibition is inconclusive: -47.7%.
